Data on 104 sequences can be found in PubChem BioAssay AID1347423 (Functional Genomics Laboratory (NCATS/FGL), 2020).

The campaign covered roughly 52,000 sequences. About 210 (0.4%) were called active.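 Rule for the calls: active = gene whose silencing raises cell survival under the drug, median off-target-corrected z-score across its silencing RNAs 2 or more; inactive = the rest.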 Some of the results follow.

This assay can be described thus: Resistance to Poly (ADP-Ribose) Polymerase inhibitor: Gene Identification via Genome-wide siRNA Screen. The note with it: mouse BRCA2 R2336H ES cells, olaparib, CellTiter-Glo viability; active compounds read high. A digest of the protocol:
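Mouse BRCA2 R2336H ES cells were reverse-transfected with siRNA (20 nM final), treated at 48 h with 500 nM olaparib, and read by CellTiter-Glo after 72 h. Scores: MAD-based z per siRNA, median per gene, seed off-target correction.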
In general terms: In ATP-based viability assays light output follows the ATP content of the culture.
Turning to GGAUUUAGCUAAGAGAGGGTT against Wig1, the z-score is inactive: 0.823.

As to GAAUUGGACAACUUUCUCCTT against Olfr8, the z-score is inactive: 1.52.

Turning to CCGCUAACUAAAAAAAUCGTT against Birc4, the z-score was inactive: 0.739.

As for GCGUAUGACAUAAAGAUAGTT against Ctbs, the z-score was inactive: 1.77.

Take GGCCAAAACCACAAAGAAGTT against Rpl36al: the z-score is inactive: -0.0808.

In the case of GGAUUAACUCUUGAAAGUUTT against Cd4, the z-score was inactive: 0.647.

Take GCCGCCAAGUUUCGAUUCGTT against Htr5b: the z-score is inactive: 0.863.

As for GGCCUCCAAUAAAGCUCAGTT against AI428795, the z-score was inactive: 1.16.

For the sequence GCUGAAUGAUAUGGAACCUTT against Vapa, the z-score was inactive: -2.62.

As to GGUUUGGUACAUUUGCAUCTT against Olfr616, the z-score was inactive: 0.404.

Consider “GCCUACUUGUGUAUAAAGATT against D15Wsu169e”, for which the z-score is inactive: -0.309.

For the sequence “GCAGGGUGAGUUGUUAAAUTT against 9630025C22”, the z-score is inactive: 1.09.

GGCUGCACACAAUAUGAACTT against Ftsj2: the z-score is inactive: 0.739.

On to GCCAGAUUGUGGUCAUGACTT against Olfr365, for which the z-score was inactive: -0.91.

On to CCUCUCUAUCUCUGACAUGTT against Olfr960, for which the z-score was inactive: -1.26.

For GAGGACAUGGCCAGAUACUTT against Npy, the z-score was inactive: 0.0419.

In the case of “GCUCAGCUACAAUAUGUUCTT against ICRFP703B1614Q5.5”, the z-score is inactive: 0.0403.

Turning to GGAGCACUGUCCUUAAACATT against Cxcl16, the z-score was inactive: -2.19.

In the case of GCCCAUCACUUAUAGUGGGTT against Usf2, the z-score was inactive: 0.227.

As to GGGCCAUGACAGAAUUCCATT against Eraf, the z-score is inactive: -0.325.

Take GUGAGUUCGAAAAGGGAAUTT against LOC212285: the z-score is inactive: 1.09.

Turning to AACAGAUCUUCUCUGGUCCTT against Klra15, the z-score was inactive: -1.44.

For the sequence “GGCUCUAUGUUUAUAAUGATT against E030002O03Rik”, the z-score was inactive: -0.0955.

Take CCUGGGAGCCUAUUAUUCUTT against Ndufb10: the z-score is inactive: 0.601.

In the case of CCAGUGACACCUUAAAACCTT against Setbp1, the z-score is inactive: 1.27.

Take CCUAAUUUCCCAGCACUUUTT against BC018371: the z-score was inactive: 1.16.

As to GGAAAUCAAAGAGAAAGUUTT against Rassf3, the z-score was inactive: -0.363.

CGGAGAGGAUUUCAUCGAATT against Azgp1: the z-score was inactive: 0.0883.

For CCAGAUUAGGCUAAUAGAATT against Lrsam1, the z-score is inactive: -0.178.

As to GGCAACUGACUAUUUAUUATT against Kcnk13, the z-score was inactive: 0.135.

Turning to CCCAUGUGCGAUGAAACUUTT against Nudt3, the z-score is inactive: 0.243.

As for “GCUCUUACAUAUCAAGCUUTT against 1700011C14Rik”, the z-score was inactive: 0.628.

“GCGGACGAGUCUCUGUUAGTT against 1600012F09Rik”: the z-score was inactive: 0.719.

Turning to GGAAUUCAUGAAGUAUAACTT against LOC208943, the z-score was inactive: 0.78.

In the case of GCUUAUUUAAUGCAUCAGGTT against Avil, the z-score is inactive: 0.326.

Consider GGGAAGAGCUAGCACUGAATT against Phox2b, for which the z-score was inactive: 0.0968.

For “CCGUUUCAGAUUCCUAUCATT against 4930524B15Rik”, the z-score was inactive: 1.28.

For GCUUGAUUUUGAAUAACACTT against Tas2r116, the z-score was inactive: -0.498.

As for GGAAGAUUCCGACUUUAUUTT against Irs4, the z-score was inactive: 0.495.

With GGGAAAACCUCUUCUGUGUTT against Olfr904, the z-score is inactive: 0.618.

In the case of “CGAGAAGUACAAAAGGGAGTT against 1700039D13Rik”, the z-score is inactive: -0.24.

For GGCUAAAGAGUCCUCGGUGTT against Serpina5, the z-score is inactive: -2.02.

With “GCUAAAGCAAUACAUAGUUTT against 5330421F07Rik”, the z-score is inactive: -0.823.

As to GGUCAUAAGAUUAGGGUCATT against Nmnat3, the z-score is inactive: -0.682.

GGCACCAAAAUCAAUGAAATT against Pcbp3: the z-score is inactive: -0.114.

Regarding “GGCCAGUGGAGGAAUAUGATT against 1300017J02Rik”, the z-score was inactive: 1.34.

On to GCUACAUUCAAAUAUGACCTT against Cd207, for which the z-score is inactive: 0.0586.

For GGUUCUGUUGUGUGAGGAGTT against Imap38, the z-score was inactive: 1.1.

As to “CCGGAAGCUAUUGACCAUUTT against 5730466P16Rik”, the z-score is inactive: 1.09.

For the sequence GGUGCAGAGUUACACGUGCTT against H2-T10, the z-score is inactive: 1.26.

Regarding GGAUUGUCAUUGACAAAACTT against Slc31a2, the z-score was inactive: 1.88.

For CCAGUACUCGUUUCACUUATT against Mrpl15, the z-score is inactive: -1.04.

Take GCCAGCUUUUAGUAUCAACTT against Unc84a: the z-score was inactive: 2.49.

With GGAGCUAGCAGAGAUAACCTT against Ube2e3, the z-score was inactive: 0.0166.

Consider GCAGCAUGGAGUUCACUAUTT against Tapbp, for which the z-score is inactive: 0.931.

With GGUGGUGCUUAAGUCCAUCTT against Cacna1b, the z-score was inactive: 0.0603.

Take GGAUCUUAAGUCCUAACAUTT against Tacc3: the z-score is inactive: -1.9.

In the case of “CGGUAGCCGGUCUUGGUGGTT against Hist2h2aa1”, the z-score was inactive: -0.63.

In the case of “GGACACUAUCCCAUUUCUATT against 9030221C07Rik”, the z-score was inactive: -1.58.

GGUGUUUGGGUACCAGUCUTT against Cyp8b1: the z-score is inactive: 0.159.

Take GGAACAACAUCCUAUGCUCTT against Ranbp17: the z-score is inactive: -0.153.

For CGUGACUACACCAUCAAAGTT against Gpr56, the z-score is inactive: 0.473.

In the case of CCUGUGACGAAUUUGAGCGTT against Il13ra1, the z-score is inactive: -0.263.

For the sequence “GGAAGCAUCAUGGAAAGGCTT against 1810032O08Rik”, the z-score was inactive: -0.25.

Consider GUUGGUUUGUUGACCUCUUTT against LOC212285, for which the z-score was inactive: 0.9.

For the sequence CCCUGCUCUCACUUGUUUATT against Olfr643, the z-score was inactive: -0.317.

With GGUUUGACUGGCUACCUAUTT against Galntl2, the z-score is inactive: -0.175.

GGAAUAUGAAGACAUAGCUTT against Ogt: the z-score is inactive: -2.33.

For “GGACAACAGUGUAAAAAUCTT against 4930511I11Rik”, the z-score is inactive: -0.186.

Turning to “GGAUACACAAACCAAAAGUTT against 2310015N07Rik”, the z-score was inactive: 1.39.

As for CCUUUGUUCCACAUAAUAATT against V1rc1, the z-score is inactive: 0.712.

GAUUGUUGCACGGCUGAAGTT against Cxcl12: the z-score is inactive: 0.323.

As for GGGAGAGCAAAACUAUUUCTT against Padi6, the z-score is inactive: 1.35.

On to GGUGCUUUCCACGAUCAACTT against Tbl2, for which the z-score was inactive: -0.769.

Take CCGCUUUUGUCAAGUUUUCTT against Ddef1: the z-score is inactive: -0.0436.

Consider GGCGAUACUUGGAAAAAUCTT against Nln, for which the z-score is inactive: -1.11.

As for “GCCAACAAGCAUUCCAUUGTT against 1110025G12Rik”, the z-score is inactive: -0.611.

On to GCUGUUGUUUGCUAGCAAATT against Lip1, for which the z-score is inactive: 0.127.

As to “GGUUCCUGGGAACCUAAGUTT against 2610034E13Rik”, the z-score was inactive: -2.13.

As for GCAAUCCAAAGUUUUAAUCTT against 7-Sep, the z-score was inactive: -0.301.

Consider GGCAGUCAAUAGUGGCCUGTT against Bcor, for which the z-score is inactive: -1.6.

Take “GGGAUGGCCAUAGAACAGATT against D4Ertd765e”: the z-score was inactive: 0.923.

With “GGGACACAGCUAAAAGCUUTT against C530043G21Rik”, the z-score was inactive: -0.783.

On to GGCCUCUCCACUUGUGAAGTT against Ghitm, for which the z-score was inactive: -0.0475.

With CGGAUCAUUGCCAAUAUCATT against Adam33, the z-score is inactive: -0.281.

In the case of “GGCAGUCUUAUAAUUCAUCTT against 6330416L07Rik”, the z-score was inactive: 0.521.

For “GGCAUAAUUCGAGAUAUCATT against B130016O10Rik”, the z-score was inactive: 3.47.

Take GGGUAAAAGGCUUUUUUGUTT against Siat8f: the z-score is inactive: 1.12.

With GGUACAACUUUGUGACUUATT against Ckn1, the z-score was inactive: 0.158.

Consider GGAACUGGUGAUAGGAGUCTT against Olfr513, for which the z-score is inactive: 0.682.

In the case of GGAGAAAAUCAACAAGAUCTT against Ppp2r2c, the z-score was inactive: -0.0371.

On to “GCAACUUAAUACUAGGUGATT against 5730439E10Rik”, for which the z-score is inactive: 0.387.

On to CCAUUAAUAUCUCAUGUGATT against Fshr, for which the z-score was inactive: 0.741.

Consider GGCAGUCUUCUAGUAAGAATT against BC009118, for which the z-score was inactive: 1.97.

For GGUAACUAUGAAGAGAUCATT against Neu2, the z-score was inactive: 2.48.

Take GGCAGAGAUUGAGAGCAAGTT against Palm: the z-score was inactive: 1.2.

Take “GGUCCACCUUCUUACUUUATT against 2900064A13Rik”: the z-score is inactive: -1.18.

GGUUCAUUGUGUCUCUGGCTT against Grk1: the z-score was inactive: 0.169.

On to CCACAAGUGCUUCAUGGGUTT against Rims3, for which the z-score was inactive: -0.0813.

Consider GGGCAAAAGCUGUUACAAGTT against Ahrr, for which the z-score was inactive: 0.359.

For the sequence GGUUGUGGAACAAAGAGAATT against Gucy1b3, the z-score was inactive: 1.39.

Take GGGCAGGUGGAUGUGGAAATT against Ryr2: the z-score was inactive: -0.427.

As for GGAAUCGUCUGAGAAAUUCTT against Lgmn, the z-score was inactive: 0.618.

For the sequence CGUCAUAAAGAAUAGUUCCTT against Ncoa4, the z-score was inactive: -0.259.
